Literature values in patent US20240041898A9, “NEUROSTEROIDS AND ENANTIOMERS THEREOF FOR THE PREVENTION AND TREATMENT OF NEURODEGENERATIVE CONDITIONS” (priority 2019, published 2024).
At least one compound was matched to its structure with a doubt left.

Tested on: RGC
Details: rat chronic hypertensive model; cited from earlier work

Compound: CO[C@H]1C[C@@H]2CC[C@@H](C)[C@@](O)(O2)C(=O)C(=O)N2CCCC[C@H]2C(=O)O[C@H]([C@H](C)C[C@@H]2CC[C@@H](O)[C@H](OC)C2)CC(=O)[C@H](C)/C=C(\C)[C@@H](O)[C@@H](OC)C(=O)[C@H](C)C[C@H](C)/C=C/C=C/C=C/1C [rapamycin]
- RGC survival: aids RGC survival
